Laboratory results reported in publication PMC4707158.
No constants are given. Whether binding was seen depends on the method and setting. In cells and extracts the contact can be indirect. A yes stands for co-enrichment or nearness to the bait. Other partners may have been found.

Sequences of proteins named here, by UniProt entry; tags and fusion partners are left off.
UniProt Q9H4L4: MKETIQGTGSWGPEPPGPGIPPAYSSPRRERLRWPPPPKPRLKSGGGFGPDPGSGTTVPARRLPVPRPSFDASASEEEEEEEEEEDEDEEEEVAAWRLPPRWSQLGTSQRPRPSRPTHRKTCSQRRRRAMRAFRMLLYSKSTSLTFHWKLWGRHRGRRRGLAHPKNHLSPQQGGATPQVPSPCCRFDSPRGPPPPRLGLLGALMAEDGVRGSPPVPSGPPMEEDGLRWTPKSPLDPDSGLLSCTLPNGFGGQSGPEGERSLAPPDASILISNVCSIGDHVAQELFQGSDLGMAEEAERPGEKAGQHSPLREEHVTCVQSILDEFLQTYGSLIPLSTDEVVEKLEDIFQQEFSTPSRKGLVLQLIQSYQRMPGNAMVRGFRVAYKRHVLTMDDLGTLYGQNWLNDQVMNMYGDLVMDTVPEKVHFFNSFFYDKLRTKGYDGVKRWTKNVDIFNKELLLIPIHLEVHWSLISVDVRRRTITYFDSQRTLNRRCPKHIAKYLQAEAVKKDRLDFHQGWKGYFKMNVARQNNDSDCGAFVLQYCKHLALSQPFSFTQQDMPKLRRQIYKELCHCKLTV
UniProt Q05086: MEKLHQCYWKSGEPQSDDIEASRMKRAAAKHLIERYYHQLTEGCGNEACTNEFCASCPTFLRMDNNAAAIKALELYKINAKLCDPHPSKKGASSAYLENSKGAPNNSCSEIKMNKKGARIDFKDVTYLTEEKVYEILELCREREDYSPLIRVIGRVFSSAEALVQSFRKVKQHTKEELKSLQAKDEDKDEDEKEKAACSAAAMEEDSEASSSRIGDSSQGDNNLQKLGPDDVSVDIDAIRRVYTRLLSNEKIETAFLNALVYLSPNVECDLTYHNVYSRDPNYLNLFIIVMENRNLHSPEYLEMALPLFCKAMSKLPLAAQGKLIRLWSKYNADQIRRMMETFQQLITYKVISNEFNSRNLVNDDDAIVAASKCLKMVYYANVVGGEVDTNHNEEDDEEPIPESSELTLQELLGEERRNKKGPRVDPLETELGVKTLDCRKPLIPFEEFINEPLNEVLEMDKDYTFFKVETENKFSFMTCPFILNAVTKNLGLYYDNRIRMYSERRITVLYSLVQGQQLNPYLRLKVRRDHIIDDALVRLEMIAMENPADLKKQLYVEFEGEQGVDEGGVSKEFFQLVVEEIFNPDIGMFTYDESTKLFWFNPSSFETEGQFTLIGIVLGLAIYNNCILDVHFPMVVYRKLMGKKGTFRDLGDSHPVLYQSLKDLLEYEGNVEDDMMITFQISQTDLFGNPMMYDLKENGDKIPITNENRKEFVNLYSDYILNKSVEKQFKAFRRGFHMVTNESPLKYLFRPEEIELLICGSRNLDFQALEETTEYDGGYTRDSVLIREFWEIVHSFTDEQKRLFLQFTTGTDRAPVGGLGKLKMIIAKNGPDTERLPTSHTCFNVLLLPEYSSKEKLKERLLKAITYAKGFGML
UniProt P08047: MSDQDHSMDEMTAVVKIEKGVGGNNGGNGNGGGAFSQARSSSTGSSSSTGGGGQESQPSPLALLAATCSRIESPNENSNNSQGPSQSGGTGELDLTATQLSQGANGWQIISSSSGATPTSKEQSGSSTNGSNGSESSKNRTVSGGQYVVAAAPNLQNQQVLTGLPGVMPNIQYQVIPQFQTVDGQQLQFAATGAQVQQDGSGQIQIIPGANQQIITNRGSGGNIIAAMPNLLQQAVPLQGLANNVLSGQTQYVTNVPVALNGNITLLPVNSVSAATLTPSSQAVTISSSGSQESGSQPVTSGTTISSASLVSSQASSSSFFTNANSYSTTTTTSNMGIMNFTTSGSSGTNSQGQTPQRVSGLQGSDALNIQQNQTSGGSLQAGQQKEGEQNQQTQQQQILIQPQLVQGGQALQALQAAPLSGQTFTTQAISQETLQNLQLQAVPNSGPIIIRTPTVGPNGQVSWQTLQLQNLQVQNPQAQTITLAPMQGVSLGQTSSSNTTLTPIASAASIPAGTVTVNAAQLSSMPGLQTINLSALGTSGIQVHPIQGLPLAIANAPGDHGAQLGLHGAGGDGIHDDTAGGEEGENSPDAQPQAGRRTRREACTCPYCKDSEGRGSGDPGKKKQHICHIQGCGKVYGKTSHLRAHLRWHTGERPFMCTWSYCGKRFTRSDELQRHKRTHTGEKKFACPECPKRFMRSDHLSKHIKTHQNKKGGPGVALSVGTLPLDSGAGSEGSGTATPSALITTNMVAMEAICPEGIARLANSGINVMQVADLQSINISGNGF
UniProt Q09161: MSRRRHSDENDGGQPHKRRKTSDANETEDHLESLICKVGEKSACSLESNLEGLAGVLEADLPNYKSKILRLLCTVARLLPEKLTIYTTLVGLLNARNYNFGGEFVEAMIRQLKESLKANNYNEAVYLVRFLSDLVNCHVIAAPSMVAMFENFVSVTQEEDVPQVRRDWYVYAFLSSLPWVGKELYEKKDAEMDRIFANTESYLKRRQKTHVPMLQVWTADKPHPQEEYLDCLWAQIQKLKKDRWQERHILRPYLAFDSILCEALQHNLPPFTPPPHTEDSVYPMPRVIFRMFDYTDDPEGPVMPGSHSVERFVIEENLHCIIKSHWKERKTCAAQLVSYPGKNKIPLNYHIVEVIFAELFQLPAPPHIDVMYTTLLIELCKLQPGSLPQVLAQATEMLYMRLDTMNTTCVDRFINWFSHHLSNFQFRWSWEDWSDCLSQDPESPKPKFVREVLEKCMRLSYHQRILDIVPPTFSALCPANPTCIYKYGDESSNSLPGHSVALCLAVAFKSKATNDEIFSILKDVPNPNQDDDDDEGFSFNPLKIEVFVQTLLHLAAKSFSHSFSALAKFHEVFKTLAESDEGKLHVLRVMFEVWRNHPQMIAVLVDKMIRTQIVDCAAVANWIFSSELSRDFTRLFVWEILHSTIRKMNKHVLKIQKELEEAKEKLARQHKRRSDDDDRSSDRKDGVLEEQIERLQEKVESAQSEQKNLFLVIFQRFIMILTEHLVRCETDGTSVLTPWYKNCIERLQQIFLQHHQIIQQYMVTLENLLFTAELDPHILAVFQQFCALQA
UniProt Q9Y678: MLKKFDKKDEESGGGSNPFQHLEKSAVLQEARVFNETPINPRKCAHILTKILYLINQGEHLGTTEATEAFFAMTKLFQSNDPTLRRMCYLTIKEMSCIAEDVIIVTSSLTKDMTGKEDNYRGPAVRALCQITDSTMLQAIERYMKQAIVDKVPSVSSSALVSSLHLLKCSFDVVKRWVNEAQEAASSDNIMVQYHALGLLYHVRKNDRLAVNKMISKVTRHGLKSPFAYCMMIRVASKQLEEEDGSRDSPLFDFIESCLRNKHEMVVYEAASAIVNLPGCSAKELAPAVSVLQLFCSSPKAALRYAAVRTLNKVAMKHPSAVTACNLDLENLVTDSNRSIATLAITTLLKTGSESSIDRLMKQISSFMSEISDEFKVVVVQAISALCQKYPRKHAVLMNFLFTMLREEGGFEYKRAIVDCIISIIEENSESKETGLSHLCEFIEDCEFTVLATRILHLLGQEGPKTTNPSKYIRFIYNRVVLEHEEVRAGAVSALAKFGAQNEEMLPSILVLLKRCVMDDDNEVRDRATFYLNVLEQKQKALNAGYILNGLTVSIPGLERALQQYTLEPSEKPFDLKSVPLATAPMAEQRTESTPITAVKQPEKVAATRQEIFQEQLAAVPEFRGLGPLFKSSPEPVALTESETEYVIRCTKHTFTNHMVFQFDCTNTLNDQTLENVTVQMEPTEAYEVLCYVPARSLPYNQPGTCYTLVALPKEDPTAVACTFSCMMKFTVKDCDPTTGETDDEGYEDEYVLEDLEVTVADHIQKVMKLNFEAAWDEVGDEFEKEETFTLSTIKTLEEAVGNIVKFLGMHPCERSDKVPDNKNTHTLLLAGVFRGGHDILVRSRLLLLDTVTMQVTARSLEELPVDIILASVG
UniProt Q15003: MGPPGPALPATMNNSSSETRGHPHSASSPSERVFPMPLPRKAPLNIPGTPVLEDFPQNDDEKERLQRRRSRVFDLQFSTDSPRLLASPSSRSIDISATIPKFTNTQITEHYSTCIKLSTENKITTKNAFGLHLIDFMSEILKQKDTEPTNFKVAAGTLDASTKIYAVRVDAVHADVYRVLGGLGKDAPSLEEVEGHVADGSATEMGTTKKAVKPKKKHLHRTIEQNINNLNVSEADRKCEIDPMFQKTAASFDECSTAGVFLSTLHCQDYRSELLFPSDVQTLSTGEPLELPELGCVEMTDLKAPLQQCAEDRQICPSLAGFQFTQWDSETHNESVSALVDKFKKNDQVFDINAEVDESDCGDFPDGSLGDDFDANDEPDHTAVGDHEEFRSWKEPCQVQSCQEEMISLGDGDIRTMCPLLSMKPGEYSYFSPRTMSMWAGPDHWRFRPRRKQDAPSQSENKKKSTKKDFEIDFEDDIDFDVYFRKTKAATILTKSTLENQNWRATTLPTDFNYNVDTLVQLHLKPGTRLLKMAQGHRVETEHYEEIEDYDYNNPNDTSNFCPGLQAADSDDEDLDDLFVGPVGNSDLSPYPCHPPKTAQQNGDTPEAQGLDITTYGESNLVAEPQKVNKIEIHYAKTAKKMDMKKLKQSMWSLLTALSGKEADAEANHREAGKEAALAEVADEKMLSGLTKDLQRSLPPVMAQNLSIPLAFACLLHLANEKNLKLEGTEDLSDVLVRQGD
UniProt Q13200: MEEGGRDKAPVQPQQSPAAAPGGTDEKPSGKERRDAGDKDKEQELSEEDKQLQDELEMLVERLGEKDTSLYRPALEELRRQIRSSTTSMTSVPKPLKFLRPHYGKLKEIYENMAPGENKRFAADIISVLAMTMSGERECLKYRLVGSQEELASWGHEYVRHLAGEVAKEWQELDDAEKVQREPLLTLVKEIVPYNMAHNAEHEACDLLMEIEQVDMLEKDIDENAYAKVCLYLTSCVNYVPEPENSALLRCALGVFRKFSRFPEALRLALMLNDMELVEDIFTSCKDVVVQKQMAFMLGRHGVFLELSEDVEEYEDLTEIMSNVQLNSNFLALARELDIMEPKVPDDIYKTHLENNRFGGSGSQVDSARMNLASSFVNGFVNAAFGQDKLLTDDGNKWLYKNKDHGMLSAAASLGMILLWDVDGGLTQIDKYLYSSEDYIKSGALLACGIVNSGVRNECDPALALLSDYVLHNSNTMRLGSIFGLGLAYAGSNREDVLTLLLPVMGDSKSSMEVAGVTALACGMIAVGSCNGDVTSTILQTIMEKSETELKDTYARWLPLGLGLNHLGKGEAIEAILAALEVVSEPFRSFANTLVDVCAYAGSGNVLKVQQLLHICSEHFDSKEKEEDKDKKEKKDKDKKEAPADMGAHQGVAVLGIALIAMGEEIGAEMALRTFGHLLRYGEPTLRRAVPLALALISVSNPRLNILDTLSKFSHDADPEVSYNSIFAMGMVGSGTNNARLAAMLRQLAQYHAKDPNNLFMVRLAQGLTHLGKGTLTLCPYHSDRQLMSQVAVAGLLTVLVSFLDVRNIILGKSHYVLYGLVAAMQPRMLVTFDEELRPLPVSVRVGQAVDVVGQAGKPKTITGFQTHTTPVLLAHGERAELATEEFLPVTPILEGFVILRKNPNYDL
UniProt O43143: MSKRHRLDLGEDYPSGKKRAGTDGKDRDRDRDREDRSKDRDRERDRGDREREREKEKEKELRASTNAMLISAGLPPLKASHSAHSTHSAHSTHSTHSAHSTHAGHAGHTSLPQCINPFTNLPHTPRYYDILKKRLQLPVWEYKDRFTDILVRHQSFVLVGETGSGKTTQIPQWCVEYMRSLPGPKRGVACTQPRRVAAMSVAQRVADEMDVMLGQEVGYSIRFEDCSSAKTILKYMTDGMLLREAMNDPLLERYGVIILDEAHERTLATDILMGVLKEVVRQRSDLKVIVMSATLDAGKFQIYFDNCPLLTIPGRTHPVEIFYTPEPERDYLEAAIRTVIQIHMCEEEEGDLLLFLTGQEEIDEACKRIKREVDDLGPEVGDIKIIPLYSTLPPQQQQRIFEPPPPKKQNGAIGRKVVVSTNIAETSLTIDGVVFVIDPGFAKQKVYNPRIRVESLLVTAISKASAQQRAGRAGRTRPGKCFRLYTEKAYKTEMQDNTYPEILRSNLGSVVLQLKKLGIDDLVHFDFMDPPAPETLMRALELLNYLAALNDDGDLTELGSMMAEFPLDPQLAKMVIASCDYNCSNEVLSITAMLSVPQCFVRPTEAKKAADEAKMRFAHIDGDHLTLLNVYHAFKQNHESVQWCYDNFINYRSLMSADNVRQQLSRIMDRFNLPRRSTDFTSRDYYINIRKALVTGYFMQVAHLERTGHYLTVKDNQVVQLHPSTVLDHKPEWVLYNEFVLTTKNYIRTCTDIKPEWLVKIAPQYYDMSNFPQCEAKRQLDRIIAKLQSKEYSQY

Each molecule was assayed against FLAG-SENP3 (UniProt Q9H4L4) (assay: affinity purification with mass spectrometry; 293T cells transfected with vector FLAG-pcDNA or FLAG-SENP3; co-IP with anti-FLAG antibody; gel silver stained, bands of approximately 100 kDa examined by MS; Table 1 lists the hits that were also increased in lysate of SENP3-transfected cells).

binding	Molecule
binds	HSP90B1 (from UniProt P14625 22-803)
binds	HSP90AB1 (from UniProt P08238 1-724)
binds	UBE3A (from UniProt Q05086 1-875)
binds	Specificity protein 1 (Sp1), endogenous (from UniProt P08047 1-785)
binds	NCBP1 (from UniProt Q09161 1-790)
binds	COPG1 (from UniProt Q9Y678 1-874)
binds	SEC63 (from UniProt Q9UGP8 1-760)
binds	KPNB1 (from UniProt Q14974 1-876)
binds	NCAPH (from UniProt Q15003 1-741)
binds	MATR3 (protein, UniProt P43243 1-847) MSKSFQQSSLSRDSQGHGRDLSAAGIGLLAAATQSLSMPASLGRMNQGTARLASLMNLGMSSSLNQQGAHSALSSASTSSHNLQSIFNIGSRGPLPLSSQHRGDADQASNILASFGLSARDLDELSRYPEDKITPENLPQILLQLKRRRTEEGPTLSYGRDGRSATREPPYRVPRDDWEEKRHFRRDSFDDRGPSLNPVLDYDHGSRSQESGYYDRMDYEDDRLRDGERCRDDSFFGETSHNYHKFDSEYERMGRGPGPLQERSLFEKKRGAPPSSNIEDFHGLLPKGYPHLCSICDLPVHSNKEWSQHINGASHSRRCQLLLEIYPEWNPDNDTGHTMGDPFMLQQSTNPAPGILGPPPPSFHLGGPAVGPRGNLGAGNGNLQGPRHMQKGRVETSRVVHIMDFQRGKNLRYQLLQLVEPFGVISNHLILNKINEAFIEMATTEDAQAAVDYYTTTPALVFGKPVRVHLSQKYKRIKKPEGKPDQKFDQKQELGRVIHLSNLPHSGYSDSAVLKLAEPYGKIKNYILMRMKSQAFIEMETREDAMAMVDHCLKKALWFQGRCVKVDLSEKYKKLVLRIPNRGIDLLKKDKSRKRSYSPDGKESPSDKKSKTDGSQKTESSTEGKEQEEKSGEDGEKDTKDDQTEQEPNMLLESEDELLVDEEEAAALLESGSSVGDETDLANLGDVASDGKKEPSDKAVKKDGSASAAAKKKLKKVDKIEELDQENEAALENGIKNEENTEPGAESSENADDPNKDTSENADGQSDENKDDYTIPDEYRIGPYQPNVPVGIDYVIPKTGFYCKLCSLFYTNEEVAKNTHCSSLPHYQKLKKFLNKLAEERRQKKET
binds	DDX27 (protein, UniProt Q96GQ7 1-765) MLADLGLIGTIGEDDEVPVEPESDSGDEEEEGPIVLGRRQKALGKNRSADFNPDFVFTEKEGTYDGSWALADVMSQLKKKRAATTLDEKIEKVRKKRKTEDKEAKSGKLEKEKEAKEGSEPKEQEDLQENDEEGSEDEASETDYSSADENILTKADTLKVKDRKKKKKKGQEAGGFFEDASQYDENLSFQDMNLSRPLLKAITAMGFKQPTPIQKACIPVGLLGKDICACAATGTGKTAAFALPVLERLIYKPRQAPVTRVLVLVPTRELGIQVHSVTRQLAQFCNITTCLAVGGLDVKSQEAALRAAPDILIATPGRLIDHLHNCPSFHLSSIEVLILDEADRMLDEYFEEQMKEIIRMCSHHRQTMLFSATMTDEVKDLASVSLKNPVRIFVNSNTDVAPFLRQEFIRIRPNREGDREAIVAALLTRTFTDHVMLFTQTKKQAHRMHILLGLMGLQVGELHGNLSQTQRLEALRRFKDEQIDILVATDVAARGLDIEGVKTVINFTMPNTIKHYVHRVGRTARAGRAGRSVSLVGEDERKMLKEIVKAAKAPVKARILPQDVILKFRDKIEKMEKDVYAVLQLEAEEKEMQQSEAQINTAKRLLEKGKEAVVQEPERSWFQTKEERKKEKIAKALQEFDLALRGKKKRKKFMKDAKKKGEMTAEERSQFEILKAQMFAERLAKRNRRAKRARAMPEEEPVRGPAKKQKQGKKSVFDEELTNTSKKALKQYRAGPSFEERKQLGLPHQRRGGNFKSKSRYKRRK
binds	ZW10 (protein, UniProt O43264 1-779) MASFVTEVLAHSGRLEKEDLGTRISRLTRRVEEIKGEVCNMISKKYSEFLPSMQSAQGLITQVDKLSEDIDLLKSRIESEVRRDLHVSTGEFTDLKQQLERDSVVLSLLKQLQEFSTAIEEYNCALTEKKYVTGAQRLEEAQKCLKLLKSRKCFDLKILKSLSMELTIQKQNILYHLGEEWQKLIVWKFPPSKDTSSLESYLQTELHLYTEQSHKEEKTPMPPISSVLLAFSVLGELHSKLKSFGQMLLKYILRPLASCPSLHAVIESQPNIVIIRFESIMTNLEYPSPSEVFTKIRLVLEVLQKQLLDLPLDTDLENEKTSTVPLAEMLGDMIWEDLSECLIKNCLVYSIPTNSSKLQQYEEIIQSTEEFENALKEMRFLKGDTTDLLKYARNINSHFANKKCQDVIVAARNLMTSEIHNTVKIIPDSKINVPELPTPDEDNKLEVQKVSNTQYHEVMNLEPENTLDQHSFSLPTCRISESVKKLMELAYQTLLEATTSSDQCAVQLFYSVRNIFHLFHDVVPTYHKENLQKLPQLAAIHHNNCMYIAHHLLTLGHQFRLRLAPILCDGTATFVDLVPGFRRLGTECFLAQMRAQKGELLERLSSARNFSNMDDEENYSAASKAVRQVLHQLKRLGIVWQDVLPVNIYCKAMGTLLNTAISEVIGKITALEDISTEDGDRLYSLCKTVMDEGPQVFAPLSEESKNKKYQEEVPVYVPKWMPFKELMMMLQASLQEIGDRWADGKGPLAAAFSSSEVKALIRALFQNTERRAAALAKIK

Continued, molecule first:

Molecule	binding
CDC5L (from UniProt Q99459 1-802)	binds
PSMD2 (from UniProt Q13200 1-908)	binds
DHX15 (from UniProt O43143 1-795)	binds
AP1G1 (from UniProt O43747 1-822)	binds
TELO2 (from UniProt Q9Y4R8 1-837)	binds
SSRP1 (from UniProt Q08945 1-709)	binds
HSP90AA1 (from UniProt P07900 1-732)	binds
TRIM28 (from UniProt Q13263 1-835)	binds
XRCC5 (Ku80) (from UniProt P13010 1-732)	binds
DDX17 (from UniProt Q92841 1-729)	binds
PDCD6IP (from UniProt Q8WUM4 1-868)	binds
VCP (from UniProt P55072 1-806)	binds
MAD1L1 (protein, UniProt Q9Y6D9 1-718) MEDLGENTMVLSTLRSLNNFISQRVEGGSGLDISTSAPGSLQMQYQQSMQLEERAEQIRSKSHLIQVEREKMQMELSHKRARVELERAASTSARNYEREVDRNQELLTRIRQLQEREAGAEEKMQEQLERNRQCQQNLDAASKRLREKEDSLAQAGETINALKGRISELQWSVMDQEMRVKRLESEKQELQEQLDLQHKKCQEANQKIQELQASQEARADHEQQIKDLEQKLSLQEQDAAIVKNMKSELVRLPRLERELKQLREESAHLREMRETNGLLQEELEGLQRKLGRQEKMQETLVGLELENERLLAKLQSWERLDQTMGLSIRTPEDLSRFVVELQQRELALKDKNSAVTSSARGLEKARQQLQEELRQVSGQLLEERKKRETHEALARRLQKRVLLLTKERDGMRAILGSYDSELTPAEYSPQLTRRMREAEDMVQKVHSHSAEMEAQLSQALEELGGQKQRADMLEMELKMLKSQSSSAEQSFLFSREEADTLRLKVEELEGERSRLEEEKRMLEAQLERRALQGDYDQSRTKVLHMSLNPTSVARQRLREDHSQLQAECERLRGLLRAMERGGTVPADLEAAAASLPSSKEVAELKKQVESAELKNQRLKEVFQTKIQEFRKACYTLTGYQIDITTENQYRLTSLYAEHPGDCLIFKATSPSGSKMQLLETEFSHTVGELIEVHLRRQDSIPAFLSSLTLELFSRQTVA	binds
MCM3 (protein, UniProt P25205 1-808) MAGTVVLDDVELREAQRDYLDFLDDEEDQGIYQSKVRELISDNQYRLIVNVNDLRRKNEKRANRLLNNAFEELVAFQRALKDFVASIDATYAKQYEEFYVGLEGSFGSKHVSPRTLTSCFLSCVVCVEGIVTKCSLVRPKVVRSVHYCPATKKTIERRYSDLTTLVAFPSSSVYPTKDEENNPLETEYGLSVYKDHQTITIQEMPEKAPAGQLPRSVDVILDDDLVDKAKPGDRVQVVGTYRCLPGKKGGYTSGTFRTVLIACNVKQMSKDAQPSFSAEDIAKIKKFSKTRSKDIFDQLAKSLAPSIHGHDYVKKAILCLLLGGVERDLENGSHIRGDINILLIGDPSVAKSQLLRYVLCTAPRAIPTTGRGSSGVGLTAAVTTDQETGERRLEAGAMVLADRGVVCIDEFDKMSDMDRTAIHEVMEQGRVTIAKAGIHARLNARCSVLAAANPVYGRYDQYKTPMENIGLQDSLLSRFDLLFIMLDQMDPEQDREISDHVLRMHRYRAPGEQDGDAMPLGSAVDILATDDPNFSQEDQQDTQIYEKHDNLLHGTKKKKEKMVSAAFMKKYIHVAKIIKPVLTQESATYIAEEYSRLRSQDSMSSDTARTSPVTARTLETLIRLATAHAKARMSKTVDLQDAEEAVELVQYAYFKKVLEKEKKRKKRSEDESETEDEEEKSQEDQEQKRKRRKTRQPDAKDGDSYDPYDFSDTEEEMPQVHTPKTADSQETKESQKVELSESRLKAFKVALLDVFREAHAQSIGMNRLTESINRDSEEPFSSVEIQAALSKMQDDNQVMVSEGIIFLI	binds
XAB2 (protein, UniProt Q9HCS7 1-855) MVVMARLSRPERPDLVFEEEDLPYEEEIMRNQFSVKCWLRYIEFKQGAPKPRLNQLYERALKLLPCSYKLWYRYLKARRAQVKHRCVTDPAYEDVNNCHERAFVFMHKMPRLWLDYCQFLMDQGRVTHTRRTFDRALRALPITQHSRIWPLYLRFLRSHPLPETAVRGYRRFLKLSPESAEEYIEYLKSSDRLDEAAQRLATVVNDERFVSKAGKSNYQLWHELCDLISQNPDKVQSLNVDAIIRGGLTRFTDQLGKLWCSLADYYIRSGHFEKARDVYEEAIRTVMTVRDFTQVFDSYAQFEESMIAAKMETASELGREEEDDVDLELRLARFEQLISRRPLLLNSVLLRQNPHHVHEWHKRVALHQGRPREIINTYTEAVQTVDPFKATGKPHTLWVAFAKFYEDNGQLDDARVILEKATKVNFKQVDDLASVWCQCGELELRHENYDEALRLLRKATALPARRAEYFDGSEPVQNRVYKSLKVWSMLADLEESLGTFQSTKAVYDRILDLRIATPQIVINYAMFLEEHKYFEESFKAYERGISLFKWPNVSDIWSTYLTKFIARYGGRKLERARDLFEQALDGCPPKYAKTLYLLYAQLEEEWGLARHAMAVYERATRAVEPAQQYDMFNIYIKRAAEIYGVTHTRGIYQKAIEVLSDEHAREMCLRFADMECKLGEIDRARAIYSFCSQICDPRTTGAFWQTWKDFEVRHGNEDTIKEMLRIRRSVQATYNTQVNFMASQMLKVSGSATGTVSDLAPGQSGMDDMKLLEQRAEQLAAEAERDQPLRAQSKILFVRSDASREELAELAQQVNPEEIQLGEDEDEDEMDLEPNEVRLEQQSVPAAVFGSLKED	binds
